Measurements taken from patent US20250236609A1, “VPS34 INHIBITORS AND METHODS OF USE THEREOF” (Deciphera Pharmaceuticals, LLC, priority 2023, published 2025).
The structures given here were assigned with low confidence; some may be wrong.

Chains of the proteins cited; added tags and fusions are not shown. Lines headed by an entry give the natural chain unless they say otherwise; changes in a name come on top. A line that says so, or that is headed by a name, gives the form on record, which may keep a tag or linker. Residues count along the entry.
UniProt Q8NEB9, 1-887 with tags or gaps limits assumed: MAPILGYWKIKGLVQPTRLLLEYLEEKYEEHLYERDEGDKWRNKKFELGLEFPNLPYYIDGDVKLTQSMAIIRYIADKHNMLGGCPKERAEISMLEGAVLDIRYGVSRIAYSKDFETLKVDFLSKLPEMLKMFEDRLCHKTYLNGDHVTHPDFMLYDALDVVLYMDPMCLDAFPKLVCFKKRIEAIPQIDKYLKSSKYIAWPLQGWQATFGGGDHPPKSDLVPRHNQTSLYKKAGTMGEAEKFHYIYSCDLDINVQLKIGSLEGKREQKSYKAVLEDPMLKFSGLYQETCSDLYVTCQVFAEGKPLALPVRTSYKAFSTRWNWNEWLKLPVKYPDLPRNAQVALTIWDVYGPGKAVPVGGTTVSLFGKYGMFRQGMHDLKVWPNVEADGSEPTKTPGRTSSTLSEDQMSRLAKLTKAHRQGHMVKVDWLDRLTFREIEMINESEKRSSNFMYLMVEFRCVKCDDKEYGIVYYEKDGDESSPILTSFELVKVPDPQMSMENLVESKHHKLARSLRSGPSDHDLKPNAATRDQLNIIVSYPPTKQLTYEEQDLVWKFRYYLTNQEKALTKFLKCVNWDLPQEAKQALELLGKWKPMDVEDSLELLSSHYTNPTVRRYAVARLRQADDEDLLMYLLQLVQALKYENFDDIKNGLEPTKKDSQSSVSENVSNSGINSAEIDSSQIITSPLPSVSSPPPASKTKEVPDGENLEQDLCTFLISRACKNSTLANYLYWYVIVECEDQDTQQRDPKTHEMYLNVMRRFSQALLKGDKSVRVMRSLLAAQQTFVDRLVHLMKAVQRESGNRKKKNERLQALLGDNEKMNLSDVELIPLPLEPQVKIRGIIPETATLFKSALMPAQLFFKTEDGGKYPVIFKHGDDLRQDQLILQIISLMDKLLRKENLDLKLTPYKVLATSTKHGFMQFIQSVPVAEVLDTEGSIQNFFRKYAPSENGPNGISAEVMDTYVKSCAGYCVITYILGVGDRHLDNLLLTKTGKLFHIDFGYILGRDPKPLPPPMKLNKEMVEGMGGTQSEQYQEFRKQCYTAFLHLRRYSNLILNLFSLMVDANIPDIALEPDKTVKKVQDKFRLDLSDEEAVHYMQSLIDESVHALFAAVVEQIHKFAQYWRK
UniProt P42336, whole entry: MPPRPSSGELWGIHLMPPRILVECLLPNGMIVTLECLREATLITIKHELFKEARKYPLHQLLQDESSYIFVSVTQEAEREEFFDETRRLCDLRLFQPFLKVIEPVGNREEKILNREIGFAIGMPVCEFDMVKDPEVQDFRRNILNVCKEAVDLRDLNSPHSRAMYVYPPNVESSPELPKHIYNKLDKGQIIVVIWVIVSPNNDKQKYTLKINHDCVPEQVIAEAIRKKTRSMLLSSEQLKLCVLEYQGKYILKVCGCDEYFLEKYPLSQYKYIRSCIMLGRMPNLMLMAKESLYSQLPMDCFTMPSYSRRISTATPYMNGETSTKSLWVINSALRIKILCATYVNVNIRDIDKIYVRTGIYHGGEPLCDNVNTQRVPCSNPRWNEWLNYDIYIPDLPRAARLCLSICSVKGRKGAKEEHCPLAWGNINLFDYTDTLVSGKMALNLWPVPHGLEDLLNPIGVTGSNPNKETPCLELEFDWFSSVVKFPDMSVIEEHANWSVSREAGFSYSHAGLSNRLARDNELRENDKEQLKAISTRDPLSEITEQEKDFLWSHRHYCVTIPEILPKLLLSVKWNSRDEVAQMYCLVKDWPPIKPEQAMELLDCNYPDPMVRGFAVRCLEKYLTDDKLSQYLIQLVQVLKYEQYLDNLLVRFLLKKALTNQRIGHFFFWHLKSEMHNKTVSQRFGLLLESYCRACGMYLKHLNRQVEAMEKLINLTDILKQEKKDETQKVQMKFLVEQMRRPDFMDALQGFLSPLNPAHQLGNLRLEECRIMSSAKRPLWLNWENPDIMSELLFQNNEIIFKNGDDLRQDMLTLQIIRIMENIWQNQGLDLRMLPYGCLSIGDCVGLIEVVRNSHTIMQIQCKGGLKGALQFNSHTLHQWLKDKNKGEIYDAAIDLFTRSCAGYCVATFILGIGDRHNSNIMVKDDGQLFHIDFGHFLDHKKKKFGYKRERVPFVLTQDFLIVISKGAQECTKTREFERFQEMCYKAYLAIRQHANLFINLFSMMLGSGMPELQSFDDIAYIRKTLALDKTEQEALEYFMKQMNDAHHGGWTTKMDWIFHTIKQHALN
UniProt P42336, whole entry E542K: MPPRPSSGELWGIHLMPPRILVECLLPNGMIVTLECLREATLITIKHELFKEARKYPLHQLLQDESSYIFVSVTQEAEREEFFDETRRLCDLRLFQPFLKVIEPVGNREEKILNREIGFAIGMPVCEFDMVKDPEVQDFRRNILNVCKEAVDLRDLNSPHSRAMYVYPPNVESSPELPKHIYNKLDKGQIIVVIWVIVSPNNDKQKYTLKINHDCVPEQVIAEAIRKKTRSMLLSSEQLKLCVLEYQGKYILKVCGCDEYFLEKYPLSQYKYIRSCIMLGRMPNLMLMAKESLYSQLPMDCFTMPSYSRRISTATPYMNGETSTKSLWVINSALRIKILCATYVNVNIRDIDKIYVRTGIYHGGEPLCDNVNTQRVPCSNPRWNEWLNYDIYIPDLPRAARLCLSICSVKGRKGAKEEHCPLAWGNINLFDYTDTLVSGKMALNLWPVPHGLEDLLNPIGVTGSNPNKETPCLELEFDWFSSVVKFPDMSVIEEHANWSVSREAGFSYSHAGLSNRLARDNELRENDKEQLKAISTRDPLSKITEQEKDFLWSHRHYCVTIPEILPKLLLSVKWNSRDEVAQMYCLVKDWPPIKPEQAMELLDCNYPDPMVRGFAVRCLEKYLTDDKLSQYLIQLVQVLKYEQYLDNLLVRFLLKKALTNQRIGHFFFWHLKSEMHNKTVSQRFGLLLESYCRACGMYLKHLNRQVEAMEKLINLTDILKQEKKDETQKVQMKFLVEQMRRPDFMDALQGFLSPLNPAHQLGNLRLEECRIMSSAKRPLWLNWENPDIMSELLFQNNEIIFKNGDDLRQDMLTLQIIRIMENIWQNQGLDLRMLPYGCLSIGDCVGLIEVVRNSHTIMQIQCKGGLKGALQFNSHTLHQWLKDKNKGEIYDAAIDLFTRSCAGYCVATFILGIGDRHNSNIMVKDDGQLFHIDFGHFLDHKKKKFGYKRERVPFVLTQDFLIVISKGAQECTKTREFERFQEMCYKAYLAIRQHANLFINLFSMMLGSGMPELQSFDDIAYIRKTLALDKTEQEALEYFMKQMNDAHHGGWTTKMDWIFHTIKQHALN
UniProt P42336, whole entry E545K: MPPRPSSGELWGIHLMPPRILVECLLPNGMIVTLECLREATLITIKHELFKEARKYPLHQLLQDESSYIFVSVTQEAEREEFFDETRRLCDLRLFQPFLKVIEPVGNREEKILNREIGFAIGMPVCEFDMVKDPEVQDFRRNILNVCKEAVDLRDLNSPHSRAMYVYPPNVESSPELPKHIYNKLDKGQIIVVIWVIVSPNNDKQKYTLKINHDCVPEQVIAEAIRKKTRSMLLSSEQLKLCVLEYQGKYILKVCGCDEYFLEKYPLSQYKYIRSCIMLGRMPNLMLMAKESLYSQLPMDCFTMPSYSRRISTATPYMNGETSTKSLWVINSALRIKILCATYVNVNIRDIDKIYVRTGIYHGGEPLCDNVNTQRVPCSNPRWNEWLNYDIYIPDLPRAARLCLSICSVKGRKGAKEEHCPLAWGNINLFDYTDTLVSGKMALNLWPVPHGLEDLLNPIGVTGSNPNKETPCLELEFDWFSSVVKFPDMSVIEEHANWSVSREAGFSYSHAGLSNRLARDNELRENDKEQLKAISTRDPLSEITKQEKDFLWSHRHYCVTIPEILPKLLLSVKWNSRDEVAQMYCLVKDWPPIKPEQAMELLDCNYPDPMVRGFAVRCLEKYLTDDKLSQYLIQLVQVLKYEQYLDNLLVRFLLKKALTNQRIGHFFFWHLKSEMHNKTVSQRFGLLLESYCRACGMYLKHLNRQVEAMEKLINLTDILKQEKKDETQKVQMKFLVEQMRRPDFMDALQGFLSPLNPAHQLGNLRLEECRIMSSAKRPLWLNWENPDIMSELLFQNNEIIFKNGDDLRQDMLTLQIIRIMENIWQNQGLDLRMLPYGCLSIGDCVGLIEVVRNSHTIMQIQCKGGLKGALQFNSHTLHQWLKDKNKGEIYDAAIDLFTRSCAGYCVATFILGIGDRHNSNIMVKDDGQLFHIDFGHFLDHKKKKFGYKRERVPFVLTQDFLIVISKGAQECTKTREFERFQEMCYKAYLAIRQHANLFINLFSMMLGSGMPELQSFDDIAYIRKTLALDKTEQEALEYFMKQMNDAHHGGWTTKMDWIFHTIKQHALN
UniProt P42336, whole entry H1047R: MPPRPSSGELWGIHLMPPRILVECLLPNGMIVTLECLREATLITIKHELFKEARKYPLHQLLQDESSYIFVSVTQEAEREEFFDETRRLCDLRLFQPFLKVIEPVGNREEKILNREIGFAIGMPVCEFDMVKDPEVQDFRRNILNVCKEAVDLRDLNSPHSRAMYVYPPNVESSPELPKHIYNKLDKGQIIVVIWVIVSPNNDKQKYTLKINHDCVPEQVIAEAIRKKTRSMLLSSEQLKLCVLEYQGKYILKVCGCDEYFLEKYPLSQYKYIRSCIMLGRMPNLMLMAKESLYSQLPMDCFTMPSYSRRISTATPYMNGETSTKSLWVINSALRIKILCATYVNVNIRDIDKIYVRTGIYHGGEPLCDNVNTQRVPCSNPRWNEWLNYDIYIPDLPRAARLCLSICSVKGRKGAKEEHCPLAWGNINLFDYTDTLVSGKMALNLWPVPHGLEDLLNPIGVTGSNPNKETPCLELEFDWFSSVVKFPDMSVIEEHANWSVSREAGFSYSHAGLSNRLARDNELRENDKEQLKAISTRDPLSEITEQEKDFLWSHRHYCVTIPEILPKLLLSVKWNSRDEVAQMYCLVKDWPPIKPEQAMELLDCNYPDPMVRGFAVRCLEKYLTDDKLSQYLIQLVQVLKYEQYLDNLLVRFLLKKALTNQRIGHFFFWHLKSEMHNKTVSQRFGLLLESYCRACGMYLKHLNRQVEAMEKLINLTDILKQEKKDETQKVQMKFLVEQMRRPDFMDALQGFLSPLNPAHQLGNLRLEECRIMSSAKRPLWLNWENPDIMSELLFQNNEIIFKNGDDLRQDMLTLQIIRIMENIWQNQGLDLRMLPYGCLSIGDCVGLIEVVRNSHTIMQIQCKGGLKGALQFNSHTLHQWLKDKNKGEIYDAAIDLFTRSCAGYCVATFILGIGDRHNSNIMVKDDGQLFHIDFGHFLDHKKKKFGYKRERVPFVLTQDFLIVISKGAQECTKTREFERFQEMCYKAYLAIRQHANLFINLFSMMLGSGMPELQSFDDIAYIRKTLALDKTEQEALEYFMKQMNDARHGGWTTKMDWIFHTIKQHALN
UniProt P42338, whole entry: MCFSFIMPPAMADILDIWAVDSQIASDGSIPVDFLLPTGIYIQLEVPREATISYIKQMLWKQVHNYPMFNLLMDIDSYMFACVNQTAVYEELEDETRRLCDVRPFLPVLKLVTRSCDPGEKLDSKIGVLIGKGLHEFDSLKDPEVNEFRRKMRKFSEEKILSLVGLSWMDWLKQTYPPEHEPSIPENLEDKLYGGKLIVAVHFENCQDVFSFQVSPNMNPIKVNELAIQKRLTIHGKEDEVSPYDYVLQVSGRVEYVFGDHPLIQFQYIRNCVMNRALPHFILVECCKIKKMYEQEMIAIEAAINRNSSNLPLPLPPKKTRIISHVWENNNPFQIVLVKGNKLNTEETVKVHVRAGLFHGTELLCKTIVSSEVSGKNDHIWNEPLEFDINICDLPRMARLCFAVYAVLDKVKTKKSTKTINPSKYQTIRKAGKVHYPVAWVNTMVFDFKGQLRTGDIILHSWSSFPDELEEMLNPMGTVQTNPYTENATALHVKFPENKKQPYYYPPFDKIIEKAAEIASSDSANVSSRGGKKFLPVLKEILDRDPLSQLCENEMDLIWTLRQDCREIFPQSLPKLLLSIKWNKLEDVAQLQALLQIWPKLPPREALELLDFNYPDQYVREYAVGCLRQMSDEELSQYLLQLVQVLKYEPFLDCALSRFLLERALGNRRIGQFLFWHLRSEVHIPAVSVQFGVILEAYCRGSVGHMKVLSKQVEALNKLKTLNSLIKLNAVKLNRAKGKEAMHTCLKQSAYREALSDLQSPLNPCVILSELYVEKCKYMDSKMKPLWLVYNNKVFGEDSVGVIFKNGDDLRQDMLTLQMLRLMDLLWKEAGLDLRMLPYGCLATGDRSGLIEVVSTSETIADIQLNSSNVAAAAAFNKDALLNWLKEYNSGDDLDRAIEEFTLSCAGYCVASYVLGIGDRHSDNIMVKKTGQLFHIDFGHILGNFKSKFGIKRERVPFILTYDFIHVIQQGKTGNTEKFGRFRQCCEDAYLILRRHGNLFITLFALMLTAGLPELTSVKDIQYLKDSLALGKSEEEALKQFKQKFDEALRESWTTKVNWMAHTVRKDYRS

Tests used:
VPS34 = VPS34 (Homo sapiens (Human), UniProt Q8NEB9); assay: Biochemical Assay for VPS34 (ADP-Glo kinase activity assay); settings: read-out: VPS34 (Inhibition of biochemical activity of VPS34, IC50); 25 nM VPS34, 1 mM ATP, 1-hour incubation at 37° C.
Method: Activity of VPS34 kinase was determined using an ADP-Glo kinase activity assay (Promega Corp). Assays were conducted in 384-well plates (5 μL assay volume) using 25 nM VPS34 (ThermoFisher Scientific), […] PI:3PS Lipid Kinase Substrate (Promega Corp.), and 1 mM ATP in kinase buffer. Inhibition of VPS34 was measured by adding serial diluted test compound (final assay concentration of 0.1% DMSO) followed by a 1-hour incubation at 37° C. ADP-Glo reagent was then added ([…]) followed by a 40 min incubation at rt. Kinase detection reagent was then added ([…]) and followed by a 60 min incubation at rt. Luminescence was then detected. The RLU at each compound concentration of was converted to percent inhibition using controls (i.e., reaction with no test compound and reaction with a known inhibitor) and IC50 values were calculated by fitting a four-parameter sigmoidal curve to the data using GeneData Screener software.
VPS34 Protein Sequence (Full Length with GST Tag)

[1] = biological target: PI3K (p110α (E542K)/p85α) (Homo sapiens (Human), UniProt P42336, E542K); assay: Lipid kinase selectivity panel (Reaction Biology); assay type: biochemical; settings: 1 μM compound, single dose duplicates, 10 μM ATP
Method: (§1) The compounds of the present invention were tested in a standard lipid kinase selectivity panel: 16 other lipid kinases (Reaction Biology, Malvern, PA, USA), under conditions of non-disclosure, non-dissemination, and non-use. In brief, compounds (see Table 2) were tested at in single dose duplicates at 1 μM against lipid kinases, including PI3Kα, PI3Kβ, and PI3Kδ, and reactions were carried out at 10 μM ATP.

[2] = biological target: PI3K (p110α (E545K)/p85α) (Homo sapiens (Human), UniProt P42336, E545K); assay: Lipid kinase selectivity panel (Reaction Biology); assay type: biochemical; settings: 1 μM compound, single dose duplicates, 10 μM ATP
Method: as §1

[3] = biological target: PI3K (p110α (H1047R)/p85α) (Homo sapiens (Human), UniProt P42336, H1047R); assay: Lipid kinase selectivity panel (Reaction Biology); assay type: biochemical; settings: 1 μM compound, single dose duplicates, 10 μM ATP
Method: as §1

PI3K (p110α/p65α) = PI3K (p110α/p65α) (Homo sapiens (Human), UniProt P42336); assay: Lipid kinase selectivity panel (Reaction Biology); assay type: biochemical; settings: 1 μM compound, single dose duplicates, 10 μM ATP
Method: as §1

PI3KC2α = PI3KC2α (Homo sapiens (Human), UniProt O00443); assay: Lipid kinase selectivity panel (Reaction Biology); assay type: biochemical; settings: 1 μM compound, single dose duplicates, 10 μM ATP
Method: as §1

PI3Kb (p110β/p85α) = PI3Kb (p110β/p85α) (Homo sapiens (Human), UniProt P42338); assay: Lipid kinase selectivity panel (Reaction Biology); assay type: biochemical; settings: 1 μM compound, single dose duplicates, 10 μM ATP
Method: as §1

PI3Kd (p110δ/p85α) = PI3Kd (p110δ/p85α) (Homo sapiens (Human), UniProt O00329); assay: Lipid kinase selectivity panel (Reaction Biology); assay type: biochemical; settings: 1 μM compound, single dose duplicates, 10 μM ATP
Method: as §1

PI3Kg (p110γ) = PI3Kg (p110γ) (Homo sapiens (Human), UniProt P48736); assay: Lipid kinase selectivity panel (Reaction Biology); assay type: biochemical; settings: 1 μM compound, single dose duplicates, 10 μM ATP
Method: as §1

PI3Kα (p110α/p85α) = PI3Kα (p110α/p85α) (Homo sapiens (Human), UniProt P42336); assay: Lipid kinase selectivity panel (Reaction Biology); assay type: biochemical; settings: 1 μM compound, single dose duplicates, 10 μM ATP
Method: as §1

IC50 (VPS34): 100 to 500 nM
Percent inhibition relative to DMSO control, PI3K (p110α (E542K)/p85α) [1]: 30%
Percent inhibition relative to DMSO control, PI3K (p110α (E545K)/p85α) [2]: 36%
Percent inhibition relative to DMSO control, PI3K (p110α (H1047R)/p85α) [3]: 44%
Percent inhibition relative to DMSO control, PI3K (p110α/p65α) (PI3K (p110α/p65α)): 33%
Percent inhibition relative to DMSO control, PI3KC2α (PI3KC2α): 2%
Percent inhibition relative to DMSO control, PI3Kb (p110β/p85α) (PI3Kb (p110β/p85α)): −7%
Percent inhibition relative to DMSO control, PI3Kd (p110δ/p85α) (PI3Kd (p110δ/p85α)): 42%
Percent inhibition relative to DMSO control, PI3Kg (p110γ) (PI3Kg (p110γ)): 41%
Percent inhibition relative to DMSO control, PI3Kα (p110α/p85α) (PI3Kα (p110α/p85α)): 25%
SMILES: COC(=O)Nc1cc(-c2cc(N3CCCC[C@@H]3C(F)(F)F)[nH]c(=O)c2)c(F)cn1
